Publication doi:10.1101/2025.07.25.666731
Residue numbers refer to the chain shown, from its start. Where two headings read alike, the source gives them in different places. No constants are given. Whether binding was seen depends on the method and setting. For some of these results: In cells and extracts the contact can be indirect. Some binding calls cover weakened binding; strength is not graded here. Sequences can lack the tags named with a protein.

Amino acid sequences for entries named in this document (tags omitted).
UniProt Q13257: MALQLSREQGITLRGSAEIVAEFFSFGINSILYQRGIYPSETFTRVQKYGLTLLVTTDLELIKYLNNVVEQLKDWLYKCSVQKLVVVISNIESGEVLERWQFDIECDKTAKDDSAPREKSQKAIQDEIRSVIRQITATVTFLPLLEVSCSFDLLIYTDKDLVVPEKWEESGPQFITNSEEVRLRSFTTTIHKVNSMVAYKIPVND
UniProt O43683: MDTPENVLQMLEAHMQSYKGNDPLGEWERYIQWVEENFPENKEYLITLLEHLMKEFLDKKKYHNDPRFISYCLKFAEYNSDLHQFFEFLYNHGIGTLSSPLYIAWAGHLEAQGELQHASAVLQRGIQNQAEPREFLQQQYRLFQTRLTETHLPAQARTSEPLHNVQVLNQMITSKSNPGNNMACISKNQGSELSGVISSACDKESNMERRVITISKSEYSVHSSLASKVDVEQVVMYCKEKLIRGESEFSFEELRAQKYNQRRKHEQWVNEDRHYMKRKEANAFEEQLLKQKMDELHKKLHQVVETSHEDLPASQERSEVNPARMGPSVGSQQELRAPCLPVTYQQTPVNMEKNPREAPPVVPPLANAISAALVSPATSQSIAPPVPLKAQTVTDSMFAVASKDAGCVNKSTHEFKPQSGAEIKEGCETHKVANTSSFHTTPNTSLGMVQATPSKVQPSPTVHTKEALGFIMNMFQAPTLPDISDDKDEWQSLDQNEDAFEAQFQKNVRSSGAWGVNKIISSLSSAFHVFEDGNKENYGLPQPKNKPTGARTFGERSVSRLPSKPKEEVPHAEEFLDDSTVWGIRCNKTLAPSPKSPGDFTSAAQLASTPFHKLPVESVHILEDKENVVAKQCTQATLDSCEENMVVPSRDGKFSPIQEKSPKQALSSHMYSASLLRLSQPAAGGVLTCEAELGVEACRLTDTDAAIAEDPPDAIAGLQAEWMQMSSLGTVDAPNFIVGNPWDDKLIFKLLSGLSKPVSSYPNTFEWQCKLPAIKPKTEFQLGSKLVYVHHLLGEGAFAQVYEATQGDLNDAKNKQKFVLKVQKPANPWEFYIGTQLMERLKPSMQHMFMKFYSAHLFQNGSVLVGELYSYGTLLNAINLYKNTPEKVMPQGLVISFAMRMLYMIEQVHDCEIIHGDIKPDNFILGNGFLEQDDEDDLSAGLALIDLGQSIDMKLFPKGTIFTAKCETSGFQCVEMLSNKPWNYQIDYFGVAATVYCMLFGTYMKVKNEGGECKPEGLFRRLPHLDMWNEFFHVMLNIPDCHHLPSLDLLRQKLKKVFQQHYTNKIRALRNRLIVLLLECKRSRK

T1: GFP-hSpindly (human) (UniProt Q96EA4)
T1 sequence: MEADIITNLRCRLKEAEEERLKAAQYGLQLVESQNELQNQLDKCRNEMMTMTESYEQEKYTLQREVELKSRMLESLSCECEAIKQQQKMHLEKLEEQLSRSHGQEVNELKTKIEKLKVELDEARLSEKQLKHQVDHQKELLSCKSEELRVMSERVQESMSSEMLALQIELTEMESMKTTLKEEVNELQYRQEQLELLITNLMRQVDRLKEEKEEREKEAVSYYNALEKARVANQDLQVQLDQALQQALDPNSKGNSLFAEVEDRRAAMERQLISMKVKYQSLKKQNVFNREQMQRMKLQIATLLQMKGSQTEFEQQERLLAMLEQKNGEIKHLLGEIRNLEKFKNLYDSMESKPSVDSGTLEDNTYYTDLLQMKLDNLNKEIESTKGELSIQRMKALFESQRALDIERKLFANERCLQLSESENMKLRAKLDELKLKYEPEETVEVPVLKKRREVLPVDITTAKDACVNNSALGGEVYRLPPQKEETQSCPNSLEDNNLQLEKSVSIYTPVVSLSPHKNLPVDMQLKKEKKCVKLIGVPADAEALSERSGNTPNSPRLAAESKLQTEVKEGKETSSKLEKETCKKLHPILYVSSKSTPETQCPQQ

T2: GFP-hSpindly T552A (human) (UniProt Q96EA4)
T2 sequence: T1 sequence with T552A

T3: GFP-hSpindly (human), Q96EA4
T3 chain: T1 sequence

T4: Mad1 (human (endogenous in RPE-1)) (UniProt Q9Y6D9)
T4 sequence: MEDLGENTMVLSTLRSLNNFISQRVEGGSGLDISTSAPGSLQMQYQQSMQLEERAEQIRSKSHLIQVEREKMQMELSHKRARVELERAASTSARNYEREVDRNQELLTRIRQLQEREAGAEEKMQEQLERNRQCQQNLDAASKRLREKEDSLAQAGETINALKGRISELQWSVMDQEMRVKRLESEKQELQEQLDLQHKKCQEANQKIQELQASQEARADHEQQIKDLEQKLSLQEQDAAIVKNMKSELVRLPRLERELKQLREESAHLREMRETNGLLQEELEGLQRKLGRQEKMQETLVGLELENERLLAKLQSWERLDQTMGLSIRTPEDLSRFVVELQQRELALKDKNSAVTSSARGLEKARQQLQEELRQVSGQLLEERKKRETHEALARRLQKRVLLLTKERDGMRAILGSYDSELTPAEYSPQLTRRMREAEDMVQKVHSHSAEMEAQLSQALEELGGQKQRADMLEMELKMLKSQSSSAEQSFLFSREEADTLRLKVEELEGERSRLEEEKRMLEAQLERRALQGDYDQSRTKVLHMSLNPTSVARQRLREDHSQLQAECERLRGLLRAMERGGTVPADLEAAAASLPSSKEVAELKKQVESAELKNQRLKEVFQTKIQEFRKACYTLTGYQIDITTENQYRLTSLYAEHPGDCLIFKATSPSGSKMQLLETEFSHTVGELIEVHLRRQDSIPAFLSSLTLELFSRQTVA

B1: GFP-hSpindly, Q96EA4 1-605 (protein)
chain: T1 sequence
B2: Aurora A kinase (protein, UniProt O14965 1-403)
chain: MDRSKENCISGPVKATAPVGGPKRVLVTQQFPCQNPLPVNSGQAQRVLCPSNSSQRIPLQAQKLVSSHKPVQNQKQKQLQATSVPHPVSRPLNNTQKSKQPLPSAPENNPEEELASKQKNEESKKRQWALEDFEIGRPLGKGKFGNVYLAREKQSKFILALKVLFKAQLEKAGVEHQLRREVEIQSHLRHPNILRLYGYFHDATRVYLILEYAPLGTVYRELQKLSKFDEQRTATYITELANALSYCHSKRVIHRDIKPENLLLGSAGELKIADFGWSVHAPSSRRTTLCGTLDYLPPEMIEGRMHDEKVDLWSLGVLCYEFLVGKPPFEANTYQETYKRISRVEFTFPDFVTEGARDLISRLLKHNPSQRPMLREVLEHPWITANSSKPSNCQNKESASKQS
B3: Mad1 (protein, UniProt Q9Y6D9 1-718)
chain: T4 sequence
B4: GFP-hSpindly (protein, UniProt Q96EA4 1-605)
chain: T1 sequence

Columns and labels:
GFP-hSpindly (human) [1] = molecular target: T1, GFP-hSpindly (human); assay: co-IP
GFP-hSpindly (human) [2] = molecular target: T1, GFP-hSpindly (human); assay: co-IP; remark: listed apart in the source
[3] = molecular target: T2, GFP-hSpindly T552A (human); assay: co-IP
[4] = molecular target: T3, GFP-hSpindly (human), Q96EA4; assay: Number and Brightness; settings: remark: other sources report otherwise
[5] = molecular target: Mad2 (human (endogenous in RPE-1)) (UniProt Q13257); assay: co-IP
[6] = molecular target: T4, Mad1 (human (endogenous in RPE-1)); assay: co-IP

| Molecule | binding (GFP-hSpindly (human) [1]) | binding (GFP-hSpindly (human) [2]) | binding [3] | other results |
| --- | --- | --- | --- | --- |
| Bub1 (from UniProt O43683 1-1085) | binds | binds | binds | – |
| B1 | – | – | – | binding [4]: binds |
| B2 | binds | binds | binds | – |
| B3 | binds | – | – | – |
| B4 | – | – | – | binding [5]: binds; binding [6]: binds |
